{"sequences": {"note": "The chains behind the UniProt entries cited, without tags or fusion partners. Where a name states a change or a piece, a line headed by the entry shows the natural chain unless it says otherwise.", "UniProt P13473": "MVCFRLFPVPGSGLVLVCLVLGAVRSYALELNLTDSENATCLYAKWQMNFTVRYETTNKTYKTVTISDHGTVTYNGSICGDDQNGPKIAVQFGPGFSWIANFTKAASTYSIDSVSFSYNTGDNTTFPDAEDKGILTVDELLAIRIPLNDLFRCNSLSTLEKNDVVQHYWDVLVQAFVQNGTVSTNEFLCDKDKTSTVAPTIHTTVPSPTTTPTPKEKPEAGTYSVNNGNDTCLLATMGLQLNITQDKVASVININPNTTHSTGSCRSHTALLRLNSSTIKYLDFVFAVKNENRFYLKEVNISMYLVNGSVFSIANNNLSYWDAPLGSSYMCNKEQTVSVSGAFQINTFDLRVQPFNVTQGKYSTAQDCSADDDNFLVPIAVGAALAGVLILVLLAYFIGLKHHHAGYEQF", "UniProt P29375": "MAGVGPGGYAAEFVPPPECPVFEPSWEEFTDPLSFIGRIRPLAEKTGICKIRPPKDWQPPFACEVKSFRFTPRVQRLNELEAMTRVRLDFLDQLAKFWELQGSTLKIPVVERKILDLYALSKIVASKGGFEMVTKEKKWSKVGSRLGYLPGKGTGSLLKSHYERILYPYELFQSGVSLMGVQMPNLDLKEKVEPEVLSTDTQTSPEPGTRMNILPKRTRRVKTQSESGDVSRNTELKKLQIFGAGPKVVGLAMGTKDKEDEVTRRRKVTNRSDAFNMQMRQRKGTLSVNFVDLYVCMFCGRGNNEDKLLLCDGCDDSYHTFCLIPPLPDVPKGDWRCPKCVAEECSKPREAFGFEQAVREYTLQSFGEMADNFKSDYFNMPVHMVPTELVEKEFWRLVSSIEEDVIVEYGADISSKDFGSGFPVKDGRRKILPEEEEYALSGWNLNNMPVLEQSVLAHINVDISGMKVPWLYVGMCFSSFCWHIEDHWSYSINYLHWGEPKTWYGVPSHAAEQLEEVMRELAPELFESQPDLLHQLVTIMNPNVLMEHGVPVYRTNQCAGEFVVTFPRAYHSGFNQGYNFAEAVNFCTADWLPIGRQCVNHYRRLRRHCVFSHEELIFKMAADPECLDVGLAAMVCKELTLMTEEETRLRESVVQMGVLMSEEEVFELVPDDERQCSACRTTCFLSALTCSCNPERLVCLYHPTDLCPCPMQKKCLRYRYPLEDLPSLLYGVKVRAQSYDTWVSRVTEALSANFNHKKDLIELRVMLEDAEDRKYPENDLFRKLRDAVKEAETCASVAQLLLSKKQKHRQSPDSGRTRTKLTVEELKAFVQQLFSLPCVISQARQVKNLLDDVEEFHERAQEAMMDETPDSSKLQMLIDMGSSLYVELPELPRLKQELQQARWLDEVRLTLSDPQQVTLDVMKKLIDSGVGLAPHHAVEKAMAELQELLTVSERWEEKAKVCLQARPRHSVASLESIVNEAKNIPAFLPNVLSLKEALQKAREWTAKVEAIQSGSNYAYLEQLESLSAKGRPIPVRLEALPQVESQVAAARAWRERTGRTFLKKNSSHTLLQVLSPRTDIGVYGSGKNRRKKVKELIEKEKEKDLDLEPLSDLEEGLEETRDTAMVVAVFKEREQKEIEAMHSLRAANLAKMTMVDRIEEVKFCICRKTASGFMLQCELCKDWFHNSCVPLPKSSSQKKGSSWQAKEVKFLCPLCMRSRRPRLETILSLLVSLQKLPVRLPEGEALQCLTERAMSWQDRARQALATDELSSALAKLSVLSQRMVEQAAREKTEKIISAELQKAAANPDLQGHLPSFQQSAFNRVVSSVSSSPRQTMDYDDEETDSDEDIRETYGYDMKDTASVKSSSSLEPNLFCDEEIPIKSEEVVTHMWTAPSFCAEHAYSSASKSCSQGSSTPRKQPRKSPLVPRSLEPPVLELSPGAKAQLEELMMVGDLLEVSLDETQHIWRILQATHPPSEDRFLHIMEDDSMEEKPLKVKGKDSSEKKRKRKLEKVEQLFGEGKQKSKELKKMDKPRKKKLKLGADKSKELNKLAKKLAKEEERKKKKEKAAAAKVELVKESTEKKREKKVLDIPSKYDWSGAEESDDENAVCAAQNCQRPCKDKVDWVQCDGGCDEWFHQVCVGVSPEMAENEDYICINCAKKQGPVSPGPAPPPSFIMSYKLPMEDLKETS", "UniProt O15230": "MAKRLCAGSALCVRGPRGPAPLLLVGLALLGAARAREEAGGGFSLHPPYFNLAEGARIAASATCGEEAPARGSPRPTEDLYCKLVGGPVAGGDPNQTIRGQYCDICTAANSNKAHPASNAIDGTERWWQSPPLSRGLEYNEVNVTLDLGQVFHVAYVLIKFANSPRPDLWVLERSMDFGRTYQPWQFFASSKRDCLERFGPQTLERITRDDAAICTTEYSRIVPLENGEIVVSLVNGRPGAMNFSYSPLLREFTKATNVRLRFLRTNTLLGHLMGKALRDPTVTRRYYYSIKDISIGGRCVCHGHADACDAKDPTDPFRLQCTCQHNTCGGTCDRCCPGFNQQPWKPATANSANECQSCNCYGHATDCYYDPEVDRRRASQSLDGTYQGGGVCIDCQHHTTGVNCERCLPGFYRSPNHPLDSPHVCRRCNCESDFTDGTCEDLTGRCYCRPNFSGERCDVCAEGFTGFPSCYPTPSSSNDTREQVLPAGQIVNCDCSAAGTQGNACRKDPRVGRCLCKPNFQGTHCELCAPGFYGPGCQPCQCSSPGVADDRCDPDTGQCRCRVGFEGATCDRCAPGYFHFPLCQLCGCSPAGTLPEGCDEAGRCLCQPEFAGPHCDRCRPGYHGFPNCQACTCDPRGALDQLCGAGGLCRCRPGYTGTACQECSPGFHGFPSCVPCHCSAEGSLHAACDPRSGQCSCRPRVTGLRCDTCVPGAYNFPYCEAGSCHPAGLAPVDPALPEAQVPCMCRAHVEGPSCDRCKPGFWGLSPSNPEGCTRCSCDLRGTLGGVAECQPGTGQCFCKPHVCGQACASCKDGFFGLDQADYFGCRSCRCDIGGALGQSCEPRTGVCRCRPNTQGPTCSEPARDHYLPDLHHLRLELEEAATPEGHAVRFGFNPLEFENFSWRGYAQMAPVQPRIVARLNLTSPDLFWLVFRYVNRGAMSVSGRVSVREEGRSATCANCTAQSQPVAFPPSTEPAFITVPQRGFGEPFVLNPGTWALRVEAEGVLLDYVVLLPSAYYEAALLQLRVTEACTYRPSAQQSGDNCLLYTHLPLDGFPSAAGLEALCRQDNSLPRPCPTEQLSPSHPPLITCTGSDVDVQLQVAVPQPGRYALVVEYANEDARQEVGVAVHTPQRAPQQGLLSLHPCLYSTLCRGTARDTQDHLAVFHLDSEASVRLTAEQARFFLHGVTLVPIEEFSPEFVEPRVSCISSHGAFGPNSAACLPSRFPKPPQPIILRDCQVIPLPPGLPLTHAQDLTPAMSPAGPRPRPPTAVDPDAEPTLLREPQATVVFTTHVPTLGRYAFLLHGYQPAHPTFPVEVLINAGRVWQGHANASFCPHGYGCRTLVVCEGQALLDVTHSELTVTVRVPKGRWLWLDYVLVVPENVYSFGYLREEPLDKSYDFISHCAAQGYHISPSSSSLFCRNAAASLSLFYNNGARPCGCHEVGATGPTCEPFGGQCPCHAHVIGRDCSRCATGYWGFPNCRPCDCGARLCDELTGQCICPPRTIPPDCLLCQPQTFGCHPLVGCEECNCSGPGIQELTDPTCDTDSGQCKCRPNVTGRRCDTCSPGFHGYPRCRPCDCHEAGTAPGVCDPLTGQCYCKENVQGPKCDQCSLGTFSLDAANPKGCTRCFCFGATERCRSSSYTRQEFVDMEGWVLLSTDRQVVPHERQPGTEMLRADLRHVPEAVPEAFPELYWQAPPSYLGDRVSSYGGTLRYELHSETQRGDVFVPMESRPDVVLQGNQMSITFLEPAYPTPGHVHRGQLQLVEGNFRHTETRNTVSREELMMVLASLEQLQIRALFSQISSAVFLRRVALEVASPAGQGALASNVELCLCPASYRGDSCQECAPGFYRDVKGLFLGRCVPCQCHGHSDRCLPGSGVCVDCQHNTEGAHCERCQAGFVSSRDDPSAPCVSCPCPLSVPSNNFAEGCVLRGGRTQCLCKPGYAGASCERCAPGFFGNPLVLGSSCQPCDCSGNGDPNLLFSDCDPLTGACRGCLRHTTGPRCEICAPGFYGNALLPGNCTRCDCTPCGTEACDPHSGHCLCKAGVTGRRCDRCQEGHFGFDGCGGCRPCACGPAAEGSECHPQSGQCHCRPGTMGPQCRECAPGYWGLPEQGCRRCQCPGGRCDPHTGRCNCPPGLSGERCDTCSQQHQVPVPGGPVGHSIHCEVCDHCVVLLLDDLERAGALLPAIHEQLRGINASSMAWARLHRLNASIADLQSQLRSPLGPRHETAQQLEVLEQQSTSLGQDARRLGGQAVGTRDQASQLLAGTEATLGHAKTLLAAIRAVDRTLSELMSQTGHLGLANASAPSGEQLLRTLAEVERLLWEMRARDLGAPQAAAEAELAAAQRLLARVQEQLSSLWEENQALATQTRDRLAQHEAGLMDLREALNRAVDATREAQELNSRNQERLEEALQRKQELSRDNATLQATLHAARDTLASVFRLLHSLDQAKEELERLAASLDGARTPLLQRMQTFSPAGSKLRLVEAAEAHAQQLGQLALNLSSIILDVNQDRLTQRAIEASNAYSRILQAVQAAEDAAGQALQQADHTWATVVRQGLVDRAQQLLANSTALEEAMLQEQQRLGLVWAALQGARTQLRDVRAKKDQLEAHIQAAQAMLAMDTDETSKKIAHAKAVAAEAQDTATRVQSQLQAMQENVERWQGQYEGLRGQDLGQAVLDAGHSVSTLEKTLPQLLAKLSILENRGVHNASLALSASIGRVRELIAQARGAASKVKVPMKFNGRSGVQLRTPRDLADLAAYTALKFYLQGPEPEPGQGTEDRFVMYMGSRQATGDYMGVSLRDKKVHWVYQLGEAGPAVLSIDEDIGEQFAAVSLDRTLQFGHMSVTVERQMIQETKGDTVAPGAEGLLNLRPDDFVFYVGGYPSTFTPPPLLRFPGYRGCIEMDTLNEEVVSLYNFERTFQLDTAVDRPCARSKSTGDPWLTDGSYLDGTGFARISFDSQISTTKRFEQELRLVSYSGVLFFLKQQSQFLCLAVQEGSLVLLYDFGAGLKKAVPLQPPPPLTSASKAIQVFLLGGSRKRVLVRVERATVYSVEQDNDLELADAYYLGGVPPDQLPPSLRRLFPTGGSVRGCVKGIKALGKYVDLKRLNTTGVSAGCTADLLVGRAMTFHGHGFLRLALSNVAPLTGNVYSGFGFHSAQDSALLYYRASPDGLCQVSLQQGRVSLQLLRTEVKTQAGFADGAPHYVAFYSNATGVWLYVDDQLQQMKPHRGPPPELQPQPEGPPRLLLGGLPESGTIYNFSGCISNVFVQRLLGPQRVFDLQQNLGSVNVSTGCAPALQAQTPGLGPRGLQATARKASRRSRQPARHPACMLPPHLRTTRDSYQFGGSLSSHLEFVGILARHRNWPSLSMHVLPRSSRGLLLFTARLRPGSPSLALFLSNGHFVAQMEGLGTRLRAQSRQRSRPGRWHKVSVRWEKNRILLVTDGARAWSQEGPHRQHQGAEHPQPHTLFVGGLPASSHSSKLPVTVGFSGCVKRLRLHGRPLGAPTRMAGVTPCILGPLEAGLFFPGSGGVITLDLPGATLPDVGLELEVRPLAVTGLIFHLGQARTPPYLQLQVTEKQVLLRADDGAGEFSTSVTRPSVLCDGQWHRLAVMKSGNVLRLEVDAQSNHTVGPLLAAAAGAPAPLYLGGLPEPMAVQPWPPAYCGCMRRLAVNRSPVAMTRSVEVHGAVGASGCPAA", "UniProt Q9GZZ8": "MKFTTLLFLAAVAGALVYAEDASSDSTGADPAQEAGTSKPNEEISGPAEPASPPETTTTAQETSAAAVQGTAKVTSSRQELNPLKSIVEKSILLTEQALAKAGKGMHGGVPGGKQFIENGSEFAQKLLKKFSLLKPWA", "UniProt Q8NA19": "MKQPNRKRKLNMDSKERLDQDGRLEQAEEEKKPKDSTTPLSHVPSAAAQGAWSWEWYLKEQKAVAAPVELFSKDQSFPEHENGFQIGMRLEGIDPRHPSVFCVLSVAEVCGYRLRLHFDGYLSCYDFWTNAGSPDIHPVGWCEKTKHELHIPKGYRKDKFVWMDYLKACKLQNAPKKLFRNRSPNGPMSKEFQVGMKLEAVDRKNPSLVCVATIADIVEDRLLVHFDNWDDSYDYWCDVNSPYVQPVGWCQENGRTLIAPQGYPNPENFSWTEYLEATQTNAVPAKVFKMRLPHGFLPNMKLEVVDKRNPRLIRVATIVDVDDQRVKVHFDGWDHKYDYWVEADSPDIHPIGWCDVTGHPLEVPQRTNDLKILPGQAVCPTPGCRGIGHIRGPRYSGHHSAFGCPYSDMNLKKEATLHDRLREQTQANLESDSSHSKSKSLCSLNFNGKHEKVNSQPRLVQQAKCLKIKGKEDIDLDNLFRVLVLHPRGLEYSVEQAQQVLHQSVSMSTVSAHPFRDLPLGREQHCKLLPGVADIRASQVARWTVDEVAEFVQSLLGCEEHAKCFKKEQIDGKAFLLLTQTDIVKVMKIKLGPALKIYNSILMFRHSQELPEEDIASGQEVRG"}, "source": "the supplement of paper PMC10849652", "experiment_in_all_cases": "log2 fold change, soluble protein after heating vs DMSO (PISA); higher = thermal stabilisation; K562 lysate, 10 uM; active = over 0.2 and 3.5 SD of the protein, either way, in both replicates (recomputed)", "key": {"[1]": {"compound": "O=C(CCCCCCC(=O)Nc1ccccc1)NO [vorinostat]", "summary_of_the_method": "(§1)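 Soluble protein was defined as the supernatant remaining after 21,000xg for 90 min, following pooling of heated aliquots and adjustment to 0.5% NP-40 at 4°C. Before that, crude K562 extract at 1 mg/mL protein in PBS pH 7.4 with 1 mM MgCl2 was treated with 10 μM compound for 30 min and heated for 3 min across 48°C-58°C. Quantification used TMTpro 16plex LC-MS/MS with channel sums equalised, and values are log-two fold changes in thermal stability relative to solvent controls from duplicates.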"}, "[2]": {"compound": "O=C(O)c1ccc2c(c1)nc(Nc1cccc(Cl)c1)c1ccncc12 [silmitasertib]", "summary_of_the_method": "as §1"}, "[3]": {"compound": "O=C1NC(=O)C(c2cnc3ccccn23)=C1c1cn2c3c(cc(F)cc13)CN(C(=O)N1CCCCC1)CC2", "summary_of_the_method": "as §1"}, "[4]": {"compound": "c1cn2cc(-c3ccc4cn[nH]c4c3)nc(Nc3ccc(N4CCOCC4)cc3)c2n1 [entospletinib]", "summary_of_the_method": "as §1"}, "[5]": {"compound": "NCC(=O)Nc1ccc(-n2nc(C(F)(F)F)cc2-c2ccc3c(ccc4ccccc43)c2)cc1", "summary_of_the_method": "as §1"}}, "note": "The other results are listed elsewhere or left out."}
{"target": "KLHDC8B (UniProt Q8IXV7)", "values": [{"measurement": "log2 fold change", "setting": "[1]", "result": "inactive: 0.066"}, {"measurement": "log2 fold change", "setting": "[2]", "result": "inactive: 0.106"}, {"measurement": "log2 fold change", "setting": "[3]", "result": "inactive: -0.016"}, {"measurement": "log2 fold change", "setting": "[4]", "result": "inactive: -0.148"}]}
{"target": "LAMP2 isoform 2 (UniProt P13473)", "values": [{"measurement": "log2 fold change", "setting": "[1]", "result": "inactive: 0.081"}, {"measurement": "log2 fold change", "setting": "[2]", "result": "inactive: -0.004"}, {"measurement": "log2 fold change", "setting": "[3]", "result": "inactive: 0.033"}]}
{"target": "KDM5A (UniProt P29375)", "values": [{"measurement": "log2 fold change", "setting": "[3]", "result": "inactive: -0.022"}]}
{"target": "LAMA5 (UniProt O15230)", "values": [{"measurement": "log2 fold change", "setting": "[1]", "result": "inactive: 0.008"}, {"measurement": "log2 fold change", "setting": "[2]", "result": "inactive: 0.071"}, {"measurement": "log2 fold change", "setting": "[3]", "result": "inactive: -0.118"}, {"measurement": "log2 fold change", "setting": "[4]", "result": "inactive: 0.085"}]}
{"target": "LACRT (UniProt Q9GZZ8)", "values": [{"measurement": "log2 fold change", "setting": "[1]", "result": "inactive: 0.303"}, {"measurement": "log2 fold change", "setting": "[2]", "result": "inactive: -0.077"}]}
{"target": "LAMB2 (UniProt P55268)", "values": [{"measurement": "log2 fold change", "setting": "[1]", "result": "inactive: -0.383"}, {"measurement": "log2 fold change", "setting": "[2]", "result": "inactive: -0.001"}, {"measurement": "log2 fold change", "setting": "[4]", "result": "inactive: -0.252"}]}
{"target": "KLHL22 (UniProt Q53GT1)", "values": [{"measurement": "log2 fold change", "setting": "[5]", "result": "inactive: -0.295"}, {"measurement": "log2 fold change", "setting": "[1]", "result": "inactive: -0.082"}, {"measurement": "log2 fold change", "setting": "[2]", "result": "inactive: 0"}, {"measurement": "log2 fold change", "setting": "[4]", "result": "inactive: 0.011"}]}
{"target": "KLF1 (UniProt Q13351)", "values": [{"measurement": "log2 fold change", "setting": "[1]", "result": "inactive: -0.278"}, {"measurement": "log2 fold change", "setting": "[2]", "result": "inactive: -0.084"}]}
{"target": "L3MBTL4 (UniProt Q8NA19)", "values": [{"measurement": "log2 fold change", "setting": "[5]", "result": "inactive: 0.013"}, {"measurement": "log2 fold change", "setting": "[3]", "result": "inactive: 0.05"}, {"measurement": "log2 fold change", "setting": "[4]", "result": "inactive: -0.132"}]}
{"target": "KPNA5 (UniProt O15131)", "values": [{"measurement": "log2 fold change", "setting": "[1]", "result": "inactive: -0.072"}, {"measurement": "log2 fold change", "setting": "[2]", "result": "inactive: 0.062"}]}
{"target": "KIFAP3 (UniProt Q92845)", "values": [{"measurement": "log2 fold change", "setting": "[3]", "result": "inactive: 0"}, {"measurement": "log2 fold change", "setting": "[4]", "result": "inactive: -0.082"}]}
{"target": "KLF13 (UniProt Q9Y2Y9)", "values": [{"measurement": "log2 fold change", "setting": "[3]", "result": "inactive: 0.083"}]}
{"target": "KIF21A (UniProt H0YI78)", "values": [{"measurement": "log2 fold change", "setting": "[1]", "result": "inactive: -0.113"}, {"measurement": "log2 fold change", "setting": "[2]", "result": "inactive: -0.016"}]}
{"target": "KRAS isoform 2 (UniProt P01116)", "values": [{"measurement": "log2 fold change", "setting": "[1]", "result": "inactive: 0.068"}, {"measurement": "log2 fold change", "setting": "[2]", "result": "inactive: -0.015"}, {"measurement": "log2 fold change", "setting": "[3]", "result": "inactive: -0.045"}, {"measurement": "log2 fold change", "setting": "[4]", "result": "inactive: -0.129"}]}
